According to publication PMC6959991:
Results are given in words; binding and its absence hold for the method and conditions named. Binding seen in cells or lysates may run through a third protein. A yes stands for co-enrichment or nearness to the bait. Other partners may have been found.

Amino acid sequences for entries named in this document (tags omitted). Residues count along the entry.
UniProt Q6RJQ3, residues 26-338: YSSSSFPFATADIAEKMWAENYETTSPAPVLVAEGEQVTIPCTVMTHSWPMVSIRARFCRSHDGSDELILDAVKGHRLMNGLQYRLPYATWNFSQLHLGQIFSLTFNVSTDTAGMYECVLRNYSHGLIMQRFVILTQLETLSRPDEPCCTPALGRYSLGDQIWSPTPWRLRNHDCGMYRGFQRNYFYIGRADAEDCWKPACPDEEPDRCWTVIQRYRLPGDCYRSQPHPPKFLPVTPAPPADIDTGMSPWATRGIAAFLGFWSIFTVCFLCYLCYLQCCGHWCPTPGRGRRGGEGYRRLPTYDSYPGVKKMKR
UniProt Q9UBN6, residues 56-386: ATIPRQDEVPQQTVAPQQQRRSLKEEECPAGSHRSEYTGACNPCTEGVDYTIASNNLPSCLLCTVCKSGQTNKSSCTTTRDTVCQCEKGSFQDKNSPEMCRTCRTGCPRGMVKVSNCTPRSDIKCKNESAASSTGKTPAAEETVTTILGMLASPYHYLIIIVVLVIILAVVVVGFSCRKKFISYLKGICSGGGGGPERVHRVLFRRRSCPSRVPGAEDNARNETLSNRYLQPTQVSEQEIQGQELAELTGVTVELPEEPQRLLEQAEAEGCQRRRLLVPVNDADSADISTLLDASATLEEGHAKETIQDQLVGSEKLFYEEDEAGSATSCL
UniProt P19438, residues 30-455: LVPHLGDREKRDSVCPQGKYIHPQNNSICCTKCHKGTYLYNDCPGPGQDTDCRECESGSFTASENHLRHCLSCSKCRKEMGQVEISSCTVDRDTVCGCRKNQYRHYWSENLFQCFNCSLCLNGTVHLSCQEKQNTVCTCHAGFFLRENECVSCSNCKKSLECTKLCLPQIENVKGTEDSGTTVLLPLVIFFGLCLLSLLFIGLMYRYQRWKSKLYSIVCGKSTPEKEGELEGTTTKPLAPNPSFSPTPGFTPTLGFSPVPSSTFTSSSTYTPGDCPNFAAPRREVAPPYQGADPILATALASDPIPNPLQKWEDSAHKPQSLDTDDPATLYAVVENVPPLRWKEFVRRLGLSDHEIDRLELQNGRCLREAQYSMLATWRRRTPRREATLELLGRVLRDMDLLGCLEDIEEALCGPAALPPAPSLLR

Tests used:
[1] = biological target: HCMV glycoprotein UL141 (human cytomegalovirus, strain Merlin) (UniProt Q6RJQ3); assay: affinity purification with mass spectrometry
[2] = biological target: ORFL147C (human cytomegalovirus, strain Merlin); assay: affinity purification with mass spectrometry
[3] = biological target: membrane protein US18 (human cytomegalovirus, strain Merlin); assay: affinity purification with mass spectrometry; as a1 but baits with more than one TM region, solubilised in 1% digitonin in TBS; CompPASS scored separately
[4] = biological target: HCMV UL20 (human cytomegalovirus, strain Merlin); assay: affinity purification with mass spectrometry
[5] = biological target: ER-resident transmembrane glycoprotein US10 (human cytomegalovirus, strain Merlin); assay: affinity purification with mass spectrometry
[6] = biological target: inhibitor of apoptosis UL36 (human cytomegalovirus, strain Merlin); assay: affinity purification with mass spectrometry

## TNFRSF10D (from UniProt Q9UBN6 56-386)
[1]
  binding: binds

## TNFRSF1A (from UniProt P19438 30-455)
[1]
  binding: binds

B1: Ribonucleotide PTB-binding 1 (protein, UniProt Q8IY67 1-606)
chain: MAADVSVTHRPPLSPKSGAEVEAGDAAERRAPEEELPPLDPEEIRKRLEHTERQFRNRRKILIRGLPGDVTNQEVHDLLSDYELKYCFVDKYKGTAFVTLLNGEQAEAAINAFHQSRLRERELSVQLQPTDALLCVANLPPSLTQQQFEELVRPFGSLERCFLVYSERTGQSKGYGFAEYMKKDSAARAKSDLLGKPLGPRTLYVHWTDAGQLTPALLHSRCLCVDRLPPGFNDVDALCRALSAVHSPTFCQLACGQDGQLKGFAVLEYETAEMAEEAQQQADGLSLGGSHLRVSFCAPGPPGRSMLAALIAAQATALNRGKGLLPEPNILQLLNNLGPSASLQLLLNPLLHGSAGGKQGLLGAPPAMPLLNGPALSTALLQLALQTQGQKKPGILGDSPLGALQPGAQPANPLLGELPAGGGLPPELPPRRGKPPPLLPSVLGPAGGDREALGLGPPAAQLTPPPAPVGLRGSGLRGPLSHFYSGSPTSYFTSGLQAGLKQSHLSKAIGSSPLGSGEGLLGLSPGPNGHSHLLKVRAGGGDMQGWEAPAPQRPLTRPALPSVSRPHWAARNAALPTCCPRPSPAQKAAMWASTPRASAATTRTPT
[2]
  binding: binds

B2: natural killer cell cytotoxicity receptor 3 ligand 1 (protein, UniProt Q68D85 25-454)
chain: DLKVEMMAGGTQITPLNDNVTIFCNIFYSQPLNITSMGITWFWKSLTFDKEVKVFEFFGDHQEAFRPGAIVSPWRLKSGDASLRLPGIQLEEAGEYRCEVVVTPLKAQGTVQLEVVASPASRLLLDQVGMKENEDKYMCESSGFYPEAINITWEKQTQKFPHPIEISEDVITGPTIKNMDGTFNVTSCLKLNSSQEDPGTVYQCVVRHASLHTPLRSNFTLTAARHSLSETEKTDNFSIHWWPISFIGVGLVLLIVLIPWKKICNKSSSAYTPLKCILKHWNSFDTQTLKKEHLIFFCTRAWPSYQLQDGEAWPPEGSVNINTIQQLDVFCRQEGKWSEVPYVQAFFALRDNPDLCQCCRIDPALLTVTSGKSIDDNSTKSEKQTPREHSDAVPDAPILPVSPIWEPPPATTSTTPVLSSQPPTLLLPLQ
[3]
  binding: binds

B3: Interferon Gamma Receptor 1 (protein, UniProt P15260 18-489)
chain: EMGTADLGPSSVPTPTNVTIESYNMNPIVYWEYQIMPQVPVFTVEVKNYGVKNSEWIDACINISHHYCNISDHVGDPSNSLWVRVKARVGQKESAYAKSEEFAVCRDGKIGPPKLDIRKEEKQIMIDIFHPSVFVNGDEQEVDYDPETTCYIRVYNVYVRMNGSEIQYKILTQKEDDCDEIQCQLAIPVSSLNSQYCVSAEGVLHVWGVTTEKSKEVCITIFNSSIKGSLWIPVVAALLLFLVLSLVFICFYIKKINPLKEKSIILPKSLISVVRSATLETKPESKYVSLITSYQPFSLEKEVVCEEPLSPATVPGMHTEDNPGKVEHTEELSSITEVVTTEENIPDVVPGSHLTPIERESSSPLSSNQSEPGSIALNSYHSRNCSESDHSRNGFDTDSSCLESHSSLSDSEFPPNNKGEIKTEGQELITVIKAPTSFGYDKPHVLVDLLVDDSGKESLIGYRPTEDSKEFS
[4]
  binding: binds

B4: Leucine Rich Repeat And Fibronectin Type III Domain Containing 3 (protein, UniProt Q9BTN0 17-628)
chain: SSPPQSATPSPCPRRCRCQTQSLPLSVLCPGAGLLFVPPSLDRRAAELRLADNFIASVRRRDLANMTGLLHLSLSRNTIRHVAAGAFADLRALRALHLDGNRLTSLGEGQLRGLVNLRHLILSNNQLAALAAGALDDCAETLEDLDLSYNNLEQLPWEALGRLGNVNTLGLDHNLLASVPAGAFSRLHKLARLDMTSNRLTTIPPDPLFSRLPLLARPRGSPASALVLAFGGNPLHCNCELVWLRRLAREDDLEACASPPALGGRYFWAVGEEEFVCEPPVVTHRSPPLAVPAGRPAALRCRAVGDPEPRVRWVSPQGRLLGNSSRARAFPNGTLELLVTEPGDGGIFTCIAANAAGEATAAVELTVGPPPPPQLANSTSCDPPRDGDPDALTPPSAASASAKVADTGPPTDRGVQVTEHGATAALVQWPDQRPIPGIRMYQIQYNSSADDILVYRMIPAESRSFLLTDLASGRTYDLCVLAVYEDSATGLTATRPVGCARFSTEPALRPCGAPHAPFLGGTMIIALGGVIVASVLVFIFVLLMRYKVHGGQPPGKAKIPAPVSSVCSQTNGALGPTPTPAPPAPEPAALRAHTVVQLDCEPWGPGHEPVGP
[5]
  binding: binds

B5: F-box component FBOX3 (protein, UniProt Q9UK99 1-471)
chain: MAAMETETAPLTLESLPTDPLLLILSFLDYRDLINCCYVSRRLSQLSSHDPLWRRHCKKYWLISEEEKTQKNQCWKSLFIDTYSDVGRYIDHYAAIKKAWDDLKKYLEPRCPRMVLSLKEGAREEDLDAVEAQIGCKLPDDYRCSYRIHNGQKLVVPGLLGSMALSNHYRSEDLLDVDTAAGGFQQRQGLKYCLPLTFCIHTGLSQYIAVEAAEGRNKNEVFYQCPDQMARNPAAIDMFIIGATFTDWFTSYVKNVVSGGFPIIRDQIFRYVHDPECVATTGDITVSVSTSFLPELSSVHPPHYFFTYRIRIEMSKDALPEKACQLDSRYWRITNAKGDVEEVQGPGVVGEFPIISPGRVYEYTSCTTFSTTSGYMEGYYTFHFLYFKDKIFNVAIPRFHMACPTFRVSIARLEMGPDEYEEMEEEEEEEEEEDEDDDSADMDESDEDDEEERRRRVFDVPIRRRRCSRLF
[6]
  binding: binds
